Reference: paper doi:10.1101/2022.11.15.516651
No constants are given. Whether binding was seen depends on the method and setting. Binding seen in cells or lysates may run through a third protein. A yes stands for co-enrichment or nearness to the bait. Other partners may have been found.

By UniProt entry, the sequences of proteins in these tests, tags left out. Where a name states a change or a piece, a line headed by the entry shows the natural chain unless it says otherwise. Residues count along the entry.
UniProt P08195, 66-630, stated change not applied: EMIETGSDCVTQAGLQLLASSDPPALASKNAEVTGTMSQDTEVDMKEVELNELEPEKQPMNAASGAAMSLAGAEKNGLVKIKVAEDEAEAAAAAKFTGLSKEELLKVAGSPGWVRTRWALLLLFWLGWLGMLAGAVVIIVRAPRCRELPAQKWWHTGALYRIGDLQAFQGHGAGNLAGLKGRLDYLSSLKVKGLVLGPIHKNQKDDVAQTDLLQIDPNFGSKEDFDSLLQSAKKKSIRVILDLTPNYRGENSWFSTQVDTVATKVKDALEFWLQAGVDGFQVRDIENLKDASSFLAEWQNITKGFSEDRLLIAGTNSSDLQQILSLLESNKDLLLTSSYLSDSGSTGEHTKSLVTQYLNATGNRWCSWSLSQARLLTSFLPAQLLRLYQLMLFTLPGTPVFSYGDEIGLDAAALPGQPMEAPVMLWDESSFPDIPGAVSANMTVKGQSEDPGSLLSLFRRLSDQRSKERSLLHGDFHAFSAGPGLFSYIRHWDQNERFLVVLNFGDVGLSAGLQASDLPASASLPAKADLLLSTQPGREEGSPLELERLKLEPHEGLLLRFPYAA
UniProt P08195, whole entry, looked up, stated change not applied: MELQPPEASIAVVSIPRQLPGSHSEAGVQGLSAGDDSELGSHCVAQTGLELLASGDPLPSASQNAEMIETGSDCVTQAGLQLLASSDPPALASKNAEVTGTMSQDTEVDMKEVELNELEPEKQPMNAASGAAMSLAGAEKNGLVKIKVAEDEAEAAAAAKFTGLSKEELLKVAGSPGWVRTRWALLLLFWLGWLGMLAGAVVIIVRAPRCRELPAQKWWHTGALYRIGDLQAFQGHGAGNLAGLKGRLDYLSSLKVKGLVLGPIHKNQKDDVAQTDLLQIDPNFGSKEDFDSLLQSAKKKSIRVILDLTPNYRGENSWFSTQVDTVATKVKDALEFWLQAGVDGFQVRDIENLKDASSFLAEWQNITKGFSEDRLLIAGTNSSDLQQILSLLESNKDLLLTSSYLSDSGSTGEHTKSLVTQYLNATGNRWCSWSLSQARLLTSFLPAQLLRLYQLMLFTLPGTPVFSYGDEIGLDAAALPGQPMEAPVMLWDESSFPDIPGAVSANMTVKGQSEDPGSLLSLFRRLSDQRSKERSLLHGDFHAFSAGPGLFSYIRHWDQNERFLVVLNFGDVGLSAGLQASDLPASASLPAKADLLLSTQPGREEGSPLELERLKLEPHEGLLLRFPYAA

Assays:
[1] = target: FLAG-SLC3A2 WTseq (human) (UniProt P08195); experiment: affinity purification with mass spectrometry
[2] = target: FLAG-SLC3A2 A273N (human) (UniProt P08195); experiment: affinity purification with mass spectrometry

Row | binding [1] | binding [2] | Substance
1 | binds | – | ATP1B3 (from UniProt P54709 1-279)
2 | binds | binds | HSP90AA1 (from UniProt P07900 1-732)
